Results reported in patent publication US20240101684A1 (AIMED BIO, published 2024).

Chains of the proteins cited; added tags and fusions are not shown. Lines headed by an entry give the natural chain unless they say otherwise; changes in a name come on top.
UniProt P22607: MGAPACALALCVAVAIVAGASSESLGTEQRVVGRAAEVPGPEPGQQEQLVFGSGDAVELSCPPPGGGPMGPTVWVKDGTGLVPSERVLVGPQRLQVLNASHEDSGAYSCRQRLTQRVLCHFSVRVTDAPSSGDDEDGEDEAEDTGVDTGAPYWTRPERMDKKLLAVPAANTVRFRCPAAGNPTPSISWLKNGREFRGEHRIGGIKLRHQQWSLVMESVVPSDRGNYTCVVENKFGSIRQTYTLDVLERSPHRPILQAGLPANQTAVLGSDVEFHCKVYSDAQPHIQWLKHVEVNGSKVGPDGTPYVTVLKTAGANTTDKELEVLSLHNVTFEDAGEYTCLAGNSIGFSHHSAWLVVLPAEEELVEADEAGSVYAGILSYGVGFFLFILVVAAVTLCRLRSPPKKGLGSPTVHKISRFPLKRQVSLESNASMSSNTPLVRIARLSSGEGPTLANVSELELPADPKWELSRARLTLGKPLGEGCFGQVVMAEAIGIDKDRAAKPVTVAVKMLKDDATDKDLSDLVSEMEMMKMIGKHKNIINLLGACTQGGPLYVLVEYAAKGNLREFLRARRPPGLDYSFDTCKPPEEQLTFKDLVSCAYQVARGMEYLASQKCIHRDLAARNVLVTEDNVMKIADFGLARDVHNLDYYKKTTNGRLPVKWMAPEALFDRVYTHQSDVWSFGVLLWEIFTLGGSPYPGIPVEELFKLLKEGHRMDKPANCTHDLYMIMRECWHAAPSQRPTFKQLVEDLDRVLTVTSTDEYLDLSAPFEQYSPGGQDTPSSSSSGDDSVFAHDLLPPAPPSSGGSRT

Molecular target: human FGFR3 IIIc recombinant protein (766-FR-050, R&D) (human) (UniProt P22607)
Assay: SPR (Biacore), hFGFR3-iiic immobilised on the chip, antibody injected

- binding: binds
B1: FS301 (antibody, V domains shown)
VH: EVQLLESGGGLVQPGGSLRLSCAASGFTFSNYAIHWVRQAPGKGLEWVSSIIPISGTANYAQKFQGRFTISRDNSKNTLYLQMNSLRAEDTAVYYCSRGGYGFDYWGQGTLVTVSS
VL: EIVLTQSPGTLSLSPGERATLSCRASQSISTFLNWYQQKPGQAPRLLIYDATNRATGIPDRFSGSGSGTDFTLTISRLEPEDFAVYYCQQANSFPLTFGQGTKVEIK

No constants are given. Whether binding was seen depends on the method and setting. Binding can be weak; no strength is given.
